# Some of the results follow.
# B1: Epf (Streptococcus pyogenes) (protein)
# chain: GDHGPEFNGVMVVKAAEAEELPDDLMNFKGTWEVSADGSSGRFFSKGATDSYVFHLIPAKDVKKPGWREHNEVKDSYIKIDKQSIAARYKTSTTAPYSVAFKVNTKSLIKDHDYKITFEQGQIASGITVDYRIGSAFNKTTDDSFKISDESKYASNVKIEGEEQGFKQREQGDKTISFRTLKEGPMSLVLLSKVEKKPQGDLDVEFKNLKIIDVTNPSQLDKGVAYVGNKNVQLTLKSDDGRTNFEGDEISLFNSRGELLQTVTVTKDQQNPISITLSEDQAKSLKNKEKLKVSIKQKQSKKTSKDFFFEVGIDPKVEAKQKEKLLELDKVKKQIEDSINGDAWLPEKPVDLQGDHGLSAWSHPQFEK
# Key:
# Test in all cases: glycan array binding signal (z-score within array); higher = stronger binding
# Settings in all cases: glycan notation: IUPAC condensed, linker removed
# [1] = biological target: Neu5Ac(a2-6)Gal(b1-4)GlcNAc(b1-6)[Gal(b1-3)GlcNAc(b1-3)]Gal(b1-4)Glc
# Outline: (§1)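 The binding signal is a Z-score computed within each array and averaged over linkers. Arrays of the same protein sequence at different concentrations or buffers were also averaged together. Data originate from 3228 arrays in the Consortium for Functional Glycomics database, kept only where the protein sequence was available.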
# [2] = biological target: Neu5Ac(a2-6)Gal(b1-4)GlcNAc(b1-6)[Gal(b1-3)]GalNAc
# Outline: as §1
# [3] = biological target: Neu5Ac(a2-6)Gal(b1-4)GlcNAc6S
# Outline: as §1
# [4] = biological target: Neu5Ac(a2-6)GalNAc
# Outline: as §1
# [5] = biological target: Neu5Ac(a2-6)GalNAc(b1-4)GlcNAc
# Outline: as §1
# [6] = biological target: Neu5Ac(a2-6)GalNAc(b1-4)GlcNAc6S
# Outline: as §1
# [7] = biological target: Neu5Ac(a2-6)GlcNAc(b1-4)GlcNAc
# Outline: as §1
# [8] = biological target: Neu5Ac(a2-6)GlcNAc(b1-4)GlcNAc(b1-4)GlcNAc
# Outline: as §1
# [9] = biological target: Neu5Ac(a2-8)Neu5Ac
# Outline: as §1
# [10] = biological target: Neu5Ac(a2-8)Neu5Ac(a2-3)Gal(b1-3)GalNAc(b1-4)[Neu5Ac(a2-3)]Gal(b1-4)Glc
# Outline: as §1
# [11] = biological target: Neu5Ac(a2-8)Neu5Ac(a2-3)Gal(b1-3)GalNAc(b1-4)[Neu5Ac(a2-8)Neu5Ac(a2-3)]Gal(b1-4)Glc
# Outline: as §1
# [12] = biological target: Neu5Ac(a2-8)Neu5Ac(a2-3)Gal(b1-4)Glc
# Outline: as §1
# [13] = biological target: Neu5Ac(a2-8)Neu5Ac(a2-3)Gal(b1-4)GlcNAc
# Outline: as §1
# [14] = biological target: Neu5Ac(a2-8)Neu5Ac(a2-3)[Gal(b1-3)GalNAc(b1-4)]Gal(b1-4)Glc
# Outline: as §1
# [15] = biological target: Neu5Ac(a2-8)Neu5Ac(a2-3)[GalNAc(b1-4)]Gal(b1-4)Glc
# Outline: as §1
# [16] = biological target: Neu5Ac(a2-8)Neu5Ac(a2-8)Neu5Ac
# Outline: as §1
# [17] = biological target: Neu5Ac(a2-8)Neu5Ac(a2-8)Neu5Ac(a2-3)Gal(b1-4)Glc
# Outline: as §1
# [18] = biological target: Neu5Ac(a2-8)Neu5Ac(a2-8)Neu5Ac(a2-3)[Gal(b1-3)GalNAc(b1-4)]Gal(b1-4)Glc
# Outline: as §1
# [19] = biological target: Neu5Ac(a2-8)Neu5Ac(a2-8)Neu5Ac(a2-3)[GalNAc(b1-4)]Gal(b1-4)Glc
# Outline: as §1
# [20] = biological target: Neu5Ac(a2-8)Neu5Ac(a2-8)Neu5Ac(a2-8)Neu5Ac(a2-3)[GalNAc(b1-4)]Gal(b1-4)Glc
# Outline: as §1
# [21] = biological target: Neu5Ac(a2-8)Neu5Gc(a2-3)Gal(b1-4)GlcNAc
# Outline: as §1
# [22] = biological target: Neu5Ac(b2-6)Gal(b1-4)GlcNAc
# Outline: as §1
# [23] = biological target: Neu5Ac(b2-6)GalNAc
# Outline: as §1
# [24] = biological target: Neu5Ac9Ac(a2-3)Gal(b1-4)GlcNAc
# Outline: as §1
# [25] = biological target: Neu5Ac9Ac(a2-6)Gal(b1-4)GlcNAc
# Outline: as §1
# [26] = biological target: Neu5Gc(a2-3)Gal(b1-3)GlcNAc
# Outline: as §1
# [27] = biological target: Neu5Gc(a2-3)Gal(b1-3)[Fuc(a1-4)]GlcNAc
# Outline: as §1
# [28] = biological target: Neu5Gc(a2-3)Gal(b1-4)Glc
# Outline: as §1
# [29] = biological target: Neu5Gc(a2-3)Gal(b1-4)GlcNAc
# Outline: as §1
# [30] = biological target: Neu5Gc(a2-3)Gal(b1-4)GlcNAc(b1-3)Gal(b1-4)GlcNAc(b1-2)Man(a1-3)[Neu5Gc(a2-3)Gal(b1-4)GlcNAc(b1-3)Gal(b1-4)GlcNAc(b1-2)Man(a1-6)]Man(b1-4)GlcNAc(b1-4)GlcNAc
# Outline: as §1
# [31] = biological target: Neu5Gc(a2-3)Gal(b1-4)[Fuc(a1-3)]GlcNAc
# Outline: as §1
# [32] = biological target: Neu5Gc(a2-6)Gal(b1-4)GlcNAc
# Outline: as §1
# [33] = biological target: Neu5Gc(a2-6)GalNAc
# Outline: as §1
# [34] = biological target: Neu5Gc(a2-8)Neu5Ac(a2-3)Gal(b1-4)GlcNAc
# Outline: as §1
# [35] = biological target: Neu5Gc(a2-8)Neu5Gc(a2-3)Gal(b1-4)GlcNAc
# Outline: as §1
# [36] = biological target: Neu5Gc(a2-8)Neu5Gc(a2-3)Gal(b1-4)GlcNAc(b1-3)Gal(b1-4)GlcNAc
# Outline: as §1
# [37] = biological target: Neu5Gc(a2-8)Neu5Gc(a2-6)Gal(b1-4)GlcNAc
# Outline: as §1
# [38] = biological target: Neu5Gc(b2-6)Gal(b1-4)GlcNAc
# Outline: as §1
binder,measurement,setting,value
B1,glycan array binding signal (z-score),[1],-0.066
same,glycan array binding signal (z-score),[2],-0.596
same,glycan array binding signal (z-score),[3],-0.463
same,glycan array binding signal (z-score),[4],-1.81
same,glycan array binding signal (z-score),[5],-0.834
same,glycan array binding signal (z-score),[6],-1.72
same,glycan array binding signal (z-score),[7],-1.5
same,glycan array binding signal (z-score),[8],0.539
same,glycan array binding signal (z-score),[9],0.246
same,glycan array binding signal (z-score),[10],-1.52
same,glycan array binding signal (z-score),[11],1.22
same,glycan array binding signal (z-score),[12],0.281
same,glycan array binding signal (z-score),[13],0.505
same,glycan array binding signal (z-score),[14],-0.085
same,glycan array binding signal (z-score),[15],-0.115
same,glycan array binding signal (z-score),[16],-0.377
same,glycan array binding signal (z-score),[17],0.188
same,glycan array binding signal (z-score),[18],-1.46
same,glycan array binding signal (z-score),[19],-0.346
same,glycan array binding signal (z-score),[20],0.295
same,glycan array binding signal (z-score),[21],-0.244
same,glycan array binding signal (z-score),[22],0.577
same,glycan array binding signal (z-score),[23],1.59
same,glycan array binding signal (z-score),[24],-1.12
same,glycan array binding signal (z-score),[25],-1.44
same,glycan array binding signal (z-score),[26],-0.581
same,glycan array binding signal (z-score),[27],0.995
same,glycan array binding signal (z-score),[28],0.325
same,glycan array binding signal (z-score),[29],0.422
same,glycan array binding signal (z-score),[30],0.343
same,glycan array binding signal (z-score),[31],0.984
same,glycan array binding signal (z-score),[32],-0.146
same,glycan array binding signal (z-score),[33],-0.652
same,glycan array binding signal (z-score),[34],-0.143
same,glycan array binding signal (z-score),[35],-1.11
same,glycan array binding signal (z-score),[36],-0.239
same,glycan array binding signal (z-score),[37],0.764
same,glycan array binding signal (z-score),[38],1.03

# Pulled one by one from the list above (2):
binder,measurement,setting,value
B1,glycan array binding signal (z-score),[14],-0.085
same,glycan array binding signal (z-score),[38],1.03

# From the supplement of paper PMC8728848
